From publication doi:10.1101/2025.06.11.659033 (bioRxiv, 2025)
Results are given in words; binding and its absence hold for the method and conditions named. For some of these results: In cells and extracts the contact can be indirect. Some entries that bind do so weakly or less than the wild type. For some of these results: Sequences can lack the tags named with a protein.

The chains behind the UniProt entries cited, without tags or fusion partners.
UniProt P0A6Y8, whole entry: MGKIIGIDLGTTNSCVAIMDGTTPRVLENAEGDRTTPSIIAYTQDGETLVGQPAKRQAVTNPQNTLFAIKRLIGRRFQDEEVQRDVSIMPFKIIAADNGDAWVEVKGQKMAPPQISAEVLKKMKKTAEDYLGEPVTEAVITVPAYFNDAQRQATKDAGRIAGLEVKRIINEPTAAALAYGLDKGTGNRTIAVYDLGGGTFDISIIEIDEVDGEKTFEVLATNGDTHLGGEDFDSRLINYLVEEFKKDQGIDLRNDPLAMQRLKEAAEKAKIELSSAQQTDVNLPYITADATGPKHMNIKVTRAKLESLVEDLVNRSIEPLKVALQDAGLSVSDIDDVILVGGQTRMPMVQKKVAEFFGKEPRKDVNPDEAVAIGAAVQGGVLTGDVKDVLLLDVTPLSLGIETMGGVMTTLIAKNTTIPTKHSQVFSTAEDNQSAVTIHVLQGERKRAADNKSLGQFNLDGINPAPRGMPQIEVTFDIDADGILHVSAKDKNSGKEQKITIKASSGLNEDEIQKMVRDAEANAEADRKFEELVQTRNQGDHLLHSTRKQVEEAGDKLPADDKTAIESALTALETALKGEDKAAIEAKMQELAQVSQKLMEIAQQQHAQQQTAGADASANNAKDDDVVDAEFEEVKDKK
UniProt P0A6F5, whole entry: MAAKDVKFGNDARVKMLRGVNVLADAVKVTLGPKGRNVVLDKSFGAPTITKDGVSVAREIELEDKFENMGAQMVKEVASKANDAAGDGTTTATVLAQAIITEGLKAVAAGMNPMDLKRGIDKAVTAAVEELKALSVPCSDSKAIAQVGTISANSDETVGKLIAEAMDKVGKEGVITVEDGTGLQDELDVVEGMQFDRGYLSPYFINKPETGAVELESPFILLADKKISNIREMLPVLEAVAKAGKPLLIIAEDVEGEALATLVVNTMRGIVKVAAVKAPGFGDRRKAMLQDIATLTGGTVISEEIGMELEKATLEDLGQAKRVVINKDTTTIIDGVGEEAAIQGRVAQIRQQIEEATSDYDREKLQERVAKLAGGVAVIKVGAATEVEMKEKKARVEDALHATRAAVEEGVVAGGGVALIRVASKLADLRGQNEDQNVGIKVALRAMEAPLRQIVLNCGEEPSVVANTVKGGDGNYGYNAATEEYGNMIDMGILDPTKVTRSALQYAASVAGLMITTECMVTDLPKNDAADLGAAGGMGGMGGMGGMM

What was measured:
[1] = biological target: T1, Heme detoxification protein from Plasmodium falciparum, full length (HDPpf) (Plasmodium falciparum) (UniProt Q8IL04); experiment: SAXS
T1 sequence: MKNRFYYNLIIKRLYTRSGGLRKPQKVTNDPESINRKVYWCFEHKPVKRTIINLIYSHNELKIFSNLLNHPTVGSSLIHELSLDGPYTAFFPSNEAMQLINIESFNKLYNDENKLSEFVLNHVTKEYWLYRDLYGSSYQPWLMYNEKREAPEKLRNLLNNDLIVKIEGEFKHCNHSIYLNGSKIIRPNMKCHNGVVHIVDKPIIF

[2] = biological target: T1, Heme detoxification protein from Plasmodium falciparum, full length (HDPpf) (Plasmodium falciparum); experiment: SEC
[3] = biological target: T2, HDPpf-GFP fusion protein (HDP-TEV-GFP-6His) (Plasmodium falciparum) (UniProt Q8IL04); experiment: co-elution in anion exchange chromatography
T2 sequence: T1 sequence

[4] = biological target: T3, MBP-HDPpf fusion protein (Plasmodium falciparum) (UniProt Q8IL04); experiment: ion exchange and hydrophobic interaction chromatography
T3 sequence: T1 sequence

[5] = biological target: T2, HDPpf-GFP fusion protein (HDP-TEV-GFP-6His) (Plasmodium falciparum); experiment: pull-down
[6] = biological target: T3, MBP-HDPpf fusion protein (Plasmodium falciparum); experiment: pull-down
[7] = biological target: T3, MBP-HDPpf fusion protein (Plasmodium falciparum); experiment: SEC

Measured: binding

DnaK (HSP70 chaperone) (from UniProt P0A6Y8 1-638)
binds: [1] | [2]

GroEL (HSP60 chaperonin) (from UniProt P0A6F5 1-548)
not listed: [1] | [2]
binds: all other assays above
